Strings that start with PEPTIDE1 are HELM notation: dots part the residues, brackets hold end groups and non-standard residues.

The nature of series [1]: general procedure: peptide synthesis; hydroxymethyl resin made from 1% cross-linked chloromethylated polystyrene-divinylbenzene resin (200-400 mesh); 0.90 mmol; DCC (symmetrical anhydride method); azide and N-hydroxysuccinimide ester couplin. The settings on record: for oxidative folding yield: oxidative folding step.
Series [2] is described as follows: Boc solid-phase peptide synthesis; Aeg(Z)-hydroxymethyl resin; DCC (symmetrical anhydride method); azide and N-hydroxysuccinimide ester couplin. The settings on record: whole synthesis.
Series [3] in a line: Boc solid-phase peptide synthesis; hydroxymethyl resin; DCC (symmetrical anhydride method); azide and N-hydroxysuccinimide ester couplin. The settings on record: whole synthesis.

Regarding “L-tryptophyl-N^ε-t-butyloxycarbonyl-L-lysyl-O-t-butyl-L-threonyl-L-phenylalanyl-O-t-butyl-L-seryl-S-acetamidomethyl-L-cysteine”, the step yield in series [1] (late stage modification step) came out at 75.2%.
In series [1] (late stage modification step), “PEPTIDE1{[Aeg].C.K.N.F.F.W.K.T.F.T.S.C}$$$$V2.0” yielded a step yield of 41.9%.
In series [2] (scale 0.734 mmol), “Aminoethylglycyl-L-cysteinyl-L-lysyl-L-asparaginyl-L-phenylalanyl-L-phenylalanyl-L-tryptophyl-L-lysyl-L-threonyl-L-phenylalanyl-L-threonyl-L-seryl-L-cysteinyl-aminoethylglycine” yielded a crude mass of 1.22 g.
In turn, “PEPTIDE1{[Aeg].C.K.N.F.F.[dW].K.T.F.T.S.C}$PEPTIDE1,PEPTIDE1,2:R3-13:R3$$$V2.0” came in with an oxidative folding yield in series [1] of 44.7%.
In series [1] (late stage modification step), “N-ε-t-Butyloxycarbonyl-L-lysyl-L-asparaginyl-L-phenylalanyl-L-phenylalanyl-L-tryptophyl-N-ε-t-butyloxycarbonyl-L-lysyl-O-t-butyl-L-threonyl-L-phenylalanyl-O-t-butyl-L-threonyl-O-t-butyl-L-serine methyl ester” displayed a step yield of 67.2%.
On the same count and under the same terms, the figure for “Aminoethylglycyl-L-alanyl-glycyl-L-cysteinyl-L-lysyl-L-asparaginyl-L-phenylalanyl-L-phenylalanyl-L-tryptophyl-L-lysyl-L-threonyl-L-phenylalanyl-L-threonyl-L-seryl-L-cysteine” is 41.7%.
“Aminoethylglycyl-L-cysteinyl-L-lysyl-L-asparaginyl-L-phenylalanyl-L-phenylalanyl-D-tryptophyl-L-lysyl-L-threonyl-L-phenylalanyl-L-threonyl-L-seryl-L-cysteinyl-aminoethylglycine” gave a crude mass in series [2] (scale 0.734 mmole) of 1.09 g.
In turn, “PEPTIDE1{C.K.N.F.F.W.K.T.F.T.S.C.[Aeg]}$$$$V2.0” came in with a crude mass in series [2] (scale 0.734 mmol) of 1.09 g.
In series [1] (late stage modification step), “N-[2-(p-Biphenylyl)-2-propyloxycarbonyl]-S-acetamidomethyl-L-cysteinyl-N-ε-t-butyloxycarbonyl-L-lysyl-L-asparaginyl-L-phenylalanyl-L-phenylalanine hydrazide” came in with a step yield of 93.1%.
“N-[2-(p-Biphenylyl)-2-propyloxycarbonyl]-L-tryptophyl-N^ε -t-butyloxycarbonyl-L-lysyl-O-t-butyl-L-threonyl-L-phenylalanyl-O-t-butyl- L-threonyl-O-t-butyl-L-seryl-S-acetamidomethyl-L-cysteine”: the step yield in series [1] (coupling step) was found to be 74.8%.
Regarding “Cyclo [Aminoethylglycyl-L-lysyl-L-asparaginyl-L-phenylalanyl-L-phenylalanyl-L-tryptophyl-L-lysyl-L-threonyl-L-phenylalanyl-L-threonyl-L-seryl]”, in series [1] (late stage modification step), the step yield is on record as 30.7%.
As for “Aminoethylglycyl-aminoethylglycyl-L-cysteinyl-L-lysyl-L-asparaginyl-L-phenylalanyl-L-phenylalanyl-D-tryptopyl-L-lysyl-L-threonyl-L-phenylalanyl-L-threonyl-L-seryl-L-cysteine”, the crude mass in series [3] (scale .773 mmol) is 915 mg.
Turning to “N-α-Benzyloxycarbonyl-N^ε -t-butyloxycarbonyl-L-lysyl-L-asparaginyl-L-phenylalanyl-L-phenylalaine methyl ester”, the step yield in series [1] (coupling step) was 67.0%.
“PEPTIDE1{[Aeg].C.K.N.F.F.[dW].K.T.F.T.S.C}$$$$V2.0” returned a crude mass in series [3] (scale 0.773 mmole) of 773 mg.
For the substance “N-α-Benzyloxycarbonyl-N-ε-t-butyloxycarbonyl-L-lysyl-L-asparaginyl-L-phenylalanyl-L-phenylalanyl-L-tryptophyl-N-ε-t-butyloxycarbonyl-L-lysyl-O-t-butyl-L-threonyl-L-phenylalanyl-O-t-butyl-L-threonyl-O-t-butyl-L-serine methyl ester”, the step yield in series [1] (coupling step) came to 73.1%.
The substance “PEPTIDE1{[Aeg].[Aeg].C.K.N.F.F.W.K.T.F.T.S.C}$$$$V2.0” showed a step yield in series [1] (late stage modification step) of 36.5%.
Regarding “L-Cysteinyl-L-lysyl-L-asparaginyl-L-phenylalanyl-L-phenylalanyl-D-tryptophyl-L-lysyl-L-threonyl-L-phenylalanyl-L-threonyl-L-seryl-L-cysteinyl-aminoethylglycine”, the crude mass in series [2] (scale .734 mmol) is reported as 0.906 g.
Take “L-Tryptophyl-N-ε-t-butyloxycarbonyl-L-lysyl-O-t-butyl-L-threonyl-L- phenylalanyl-O-t-butyl-L-threonyl-O-t-butyl-L-serine methyl ester.multidot.HCl”: the step yield in series [1] (late stage modification step) worked out at 89.8%.
Same read-out and setting: the figure for “N-[2-(p-Biphenylyl)-2-propyloxycarbonyl]-L-tryptophyl-N^ε -t-butyloxycarbonyl-L-lysyl-O-t-butyl-L-threonyl-L-phenylalanyl-O-t-butyl- L-threonyl-O-t-butyl-L-serine hydrazide” is 88.2%.
The substance “Aminoethylglycyl-aminoethylglycyl-L-cysteinyl-L-lysyl-L-asparaginyl-L-phenylalanyl-L-phenylalanyl-D-tryptophyl-L-lysyl-L-threonyl-L-phenylalanyl-L-threonyl-L-seryl-L-cysteine(oxidized form)” displayed an oxidative folding yield in series [1] (on reduced linear peptide) of 62%.
With “N-[2-(p-Biphenylyl)-2-propyloxycarbonyl]-S-acetamidomethyl-L-cysteinyl-N-ε-t-butyloxycarbonyl-L-lysyl-L-asparaginyl-L-phenylalanyl-L-phenylalanine methyl ester”, the step yield in series [1] (coupling step) was found to be 65.4%.
